Source: PubChem BioAssay AID1259308 (NCATS, 2017)
Shown is one part, drawn at random, of about 59,000 deposited reagents. About 1,510 of them (2.6%) count as active. 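Calls use total luciferase alone and ignore viability, so some active siRNAs may act by altering cell number.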 A number with no mark means an inactive call. Reagents against one gene are numbered here. Not all columns of the deposit are shown. Reagent sequences are not shown.

Assay: 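Knock-downs that increase output of a recombinant reporter protein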 (primary screen)
Cells: human HEK293 embryonic kidney cells stably expressing firefly luciferase (HEK-CMV-Luc2-Hygro)
Reagents: single siRNA against human genes, 0.8 pmol siRNA per well
Duration: 72 h
Measurement: 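Luciferase light (ONE-Glo) measured on one replicate plate set and viability (CellTiter-Glo) on the other, scaled to a negative control siRNA, with robust z-scores and luciferase per cell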
Direction: total luciferase, z-score and total luciferase, % of control: higher = more reporter protein produced
Rule for the call: 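Active when the median/MAD z-score for overall luciferase is greater than 3; a gene was taken forward for validation with new siRNAs if at least two of its three siRNAs passed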
Calls: active = raised luciferase; inactive = no rise

target,siRNA no.,"total luciferase, z-score","total luciferase, % of control"
CCDC171 (coiled-coil domain containing 171),1,1.42,110
CCDC171 (coiled-coil domain containing 171),2,-1.74,47.2
CCDC171 (coiled-coil domain containing 171),3,0.811,98
CFAP45 (cilia and flagella associated protein 45),1,-0.83,65.4
CFAP45 (cilia and flagella associated protein 45),2,-0.922,63.6
CFAP45 (cilia and flagella associated protein 45),3,0.822,98.2
CHRM1 (cholinergic receptor muscarinic 1),1,3.44 (active),150
CHRM1 (cholinergic receptor muscarinic 1),2,0.485,91.5
CHRM1 (cholinergic receptor muscarinic 1),3,-0.779,66.4
"RELB (RELB proto-oncogene, NF-kB subunit)",1,1.64,115
"RELB (RELB proto-oncogene, NF-kB subunit)",2,-0.298,76
"RELB (RELB proto-oncogene, NF-kB subunit)",3,-0.361,74.7
ANKRD30BP3 (ANKRD30B pseudogene 3),1,0.11,84.1
ANKRD30BP3 (ANKRD30B pseudogene 3),2,-0.193,78.1
ANKRD30BP3 (ANKRD30B pseudogene 3),3,0.956,101
MOXD1 (monooxygenase DBH like 1),1,-0.791,66.2
MOXD1 (monooxygenase DBH like 1),2,-0.217,77.6
MOXD1 (monooxygenase DBH like 1),3,-0.703,67.9
KLF7 (KLF transcription factor 7),1,-0.35,74.9
KLF7 (KLF transcription factor 7),2,-0.163,78.6
KLF7 (KLF transcription factor 7),3,-0.565,70.6
SYT3 (synaptotagmin 3),1,-0.174,78.4
SYT3 (synaptotagmin 3),2,1.66,115
SYT3 (synaptotagmin 3),3,-0.188,78.1
ZNF618 (zinc finger protein 618),1,-0.53,71.3
ZNF618 (zinc finger protein 618),2,1.37,109
ZNF618 (zinc finger protein 618),3,0.315,88.2
PRDM16 (PR/SET domain 16),1,3.45 (active),150
PRDM16 (PR/SET domain 16),2,-0.396,74
PRDM16 (PR/SET domain 16),3,-1.04,61.2
PRDM16 (PR/SET domain 16),4,-0.904,63.9
PRDM16 (PR/SET domain 16),5,1.13,104
PRDM16 (PR/SET domain 16),6,-1.66,48.8
LOC646012 (aurora kinase A interacting protein 1 pseudogene),1,2.06,123
LOC646012 (aurora kinase A interacting protein 1 pseudogene),2,0.113,84.1
LOC646012 (aurora kinase A interacting protein 1 pseudogene),3,0.366,89.2
SPPL2B (signal peptide peptidase like 2B),1,-1.13,59.4
SPPL2B (signal peptide peptidase like 2B),2,-0.281,76.3
SPPL2B (signal peptide peptidase like 2B),3,0.483,91.5
GYG1 (glycogenin 1),1,0.696,95.7
GYG1 (glycogenin 1),2,-0.612,69.7
GYG1 (glycogenin 1),3,4.09 (active),163
EHHADH (enoyl-CoA hydratase and 3-hydroxyacyl CoA dehydrogenase),1,-0.546,71
EHHADH (enoyl-CoA hydratase and 3-hydroxyacyl CoA dehydrogenase),2,-0.00168,81.9
EHHADH (enoyl-CoA hydratase and 3-hydroxyacyl CoA dehydrogenase),3,-1.35,55
RASA3 (RAS p21 protein activator 3),1,0.73,96.4
RASA3 (RAS p21 protein activator 3),2,0.75,96.8
RASA3 (RAS p21 protein activator 3),3,1.2,106
"VN2R1P (vomeronasal 2 receptor 1, pseudogene)",1,0.806,97.9
"VN2R1P (vomeronasal 2 receptor 1, pseudogene)",2,0.672,95.3
"VN2R1P (vomeronasal 2 receptor 1, pseudogene)",3,-0.0414,81.1
TIMM10 (translocase of inner mitochondrial membrane 10),1,0.281,87.5
TIMM10 (translocase of inner mitochondrial membrane 10),2,-0.294,76
TIMM10 (translocase of inner mitochondrial membrane 10),3,-0.493,72.1
VASH1 (vasohibin 1),1,-0.489,72.2
VASH1 (vasohibin 1),2,0.0194,82.3
VASH1 (vasohibin 1),3,0.933,100

Targets above whose gene name begins with S or s:
target,siRNA no.,"total luciferase, z-score","total luciferase, % of control"
SYT3 (synaptotagmin 3),1,-0.174,78.4
SYT3 (synaptotagmin 3),2,1.66,115
SYT3 (synaptotagmin 3),3,-0.188,78.1
SPPL2B (signal peptide peptidase like 2B),1,-1.13,59.4
SPPL2B (signal peptide peptidase like 2B),2,-0.281,76.3
SPPL2B (signal peptide peptidase like 2B),3,0.483,91.5
